The list shows a part of the results.
Assays:
Assay in all cases: log2 fold change, soluble protein after heating vs DMSO (PISA); higher = thermal stabilisation; K562 cells, 10 uM, 30 min; active = over 0.2 and 3.5 SD of the protein, either way, in both replicates (recomputed)
[1] = compound: CC1=C(C=C(C=C1)NC(=O)C2=CC(=CC=C2)C(C)(C)C#N)NC3=CC4=C(C=C3)N=CN(C4=O)C
Procedure, shortened: (§1)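 Soluble protein was quantified by TMTpro 16plex LC-MS/MS after channel sums were equalised. It was obtained as the supernatant after 21,000xg for 90 min from pooled aliquots of K562 cells (2×10^6 cells/mL, 10 μM compound, 30 min) heated for 3 min across 48°C-58°C and extracted in PBS with 0.5% NP-40 at 4°C. Thermal stability values are relative to control samples and come from duplicates. They are given as log2 fold changes.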

Sequences of proteins named here, by UniProt entry; tags and fusion partners are left off. A change or cut given only in a name is not applied to a line headed by its entry.
UniProt P02649, whole entry, looked up: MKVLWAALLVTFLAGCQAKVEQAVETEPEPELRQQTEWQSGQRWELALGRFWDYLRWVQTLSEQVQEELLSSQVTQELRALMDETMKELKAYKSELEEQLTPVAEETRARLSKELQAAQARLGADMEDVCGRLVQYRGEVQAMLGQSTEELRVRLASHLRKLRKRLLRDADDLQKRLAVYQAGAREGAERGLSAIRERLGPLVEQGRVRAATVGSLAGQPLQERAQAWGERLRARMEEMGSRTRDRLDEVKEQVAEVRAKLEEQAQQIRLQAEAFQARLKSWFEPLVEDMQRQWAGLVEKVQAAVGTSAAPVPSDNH
UniProt Q9BZZ5: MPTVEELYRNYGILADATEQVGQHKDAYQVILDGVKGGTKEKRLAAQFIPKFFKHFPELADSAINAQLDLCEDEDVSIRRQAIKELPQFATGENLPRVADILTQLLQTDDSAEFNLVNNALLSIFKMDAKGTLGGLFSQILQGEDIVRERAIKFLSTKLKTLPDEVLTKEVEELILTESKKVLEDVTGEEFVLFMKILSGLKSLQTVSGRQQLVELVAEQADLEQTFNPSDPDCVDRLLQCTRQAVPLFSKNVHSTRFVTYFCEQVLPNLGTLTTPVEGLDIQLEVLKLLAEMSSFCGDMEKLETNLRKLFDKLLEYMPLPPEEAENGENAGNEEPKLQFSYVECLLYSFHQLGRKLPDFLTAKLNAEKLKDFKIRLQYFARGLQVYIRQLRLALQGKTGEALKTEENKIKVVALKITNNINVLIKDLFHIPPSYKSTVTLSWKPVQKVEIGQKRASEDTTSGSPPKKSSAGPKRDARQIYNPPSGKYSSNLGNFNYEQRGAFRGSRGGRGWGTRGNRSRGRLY
UniProt Q9Y4X5: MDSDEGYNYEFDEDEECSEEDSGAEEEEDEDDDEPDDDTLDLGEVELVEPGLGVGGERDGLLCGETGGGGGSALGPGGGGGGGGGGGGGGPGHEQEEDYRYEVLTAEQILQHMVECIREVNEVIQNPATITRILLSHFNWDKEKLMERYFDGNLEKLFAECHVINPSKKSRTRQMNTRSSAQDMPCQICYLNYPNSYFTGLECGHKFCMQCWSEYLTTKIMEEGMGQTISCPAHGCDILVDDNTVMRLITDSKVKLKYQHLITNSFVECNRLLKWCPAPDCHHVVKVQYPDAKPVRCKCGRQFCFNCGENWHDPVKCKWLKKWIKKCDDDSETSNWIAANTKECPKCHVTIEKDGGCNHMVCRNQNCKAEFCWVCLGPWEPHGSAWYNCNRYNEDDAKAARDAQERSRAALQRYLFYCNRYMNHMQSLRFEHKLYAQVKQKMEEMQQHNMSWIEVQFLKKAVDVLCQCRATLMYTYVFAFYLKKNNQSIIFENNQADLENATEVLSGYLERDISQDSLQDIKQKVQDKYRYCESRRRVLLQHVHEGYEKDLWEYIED
UniProt P78540: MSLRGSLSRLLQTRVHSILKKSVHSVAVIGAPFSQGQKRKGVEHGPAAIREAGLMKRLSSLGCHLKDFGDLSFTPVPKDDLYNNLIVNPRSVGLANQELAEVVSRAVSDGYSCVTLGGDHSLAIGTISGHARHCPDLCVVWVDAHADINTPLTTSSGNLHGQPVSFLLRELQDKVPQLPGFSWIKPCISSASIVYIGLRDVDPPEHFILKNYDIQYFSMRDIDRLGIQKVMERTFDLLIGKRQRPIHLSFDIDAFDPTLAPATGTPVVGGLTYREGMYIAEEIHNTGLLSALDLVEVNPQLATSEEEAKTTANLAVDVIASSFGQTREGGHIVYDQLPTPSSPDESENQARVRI
UniProt P52566: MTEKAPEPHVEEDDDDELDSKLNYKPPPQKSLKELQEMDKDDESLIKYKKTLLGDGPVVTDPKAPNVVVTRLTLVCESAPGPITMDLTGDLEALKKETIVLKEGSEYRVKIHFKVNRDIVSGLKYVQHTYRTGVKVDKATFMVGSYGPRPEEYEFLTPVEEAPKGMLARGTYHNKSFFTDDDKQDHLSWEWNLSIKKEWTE
UniProt Q9Y6D5: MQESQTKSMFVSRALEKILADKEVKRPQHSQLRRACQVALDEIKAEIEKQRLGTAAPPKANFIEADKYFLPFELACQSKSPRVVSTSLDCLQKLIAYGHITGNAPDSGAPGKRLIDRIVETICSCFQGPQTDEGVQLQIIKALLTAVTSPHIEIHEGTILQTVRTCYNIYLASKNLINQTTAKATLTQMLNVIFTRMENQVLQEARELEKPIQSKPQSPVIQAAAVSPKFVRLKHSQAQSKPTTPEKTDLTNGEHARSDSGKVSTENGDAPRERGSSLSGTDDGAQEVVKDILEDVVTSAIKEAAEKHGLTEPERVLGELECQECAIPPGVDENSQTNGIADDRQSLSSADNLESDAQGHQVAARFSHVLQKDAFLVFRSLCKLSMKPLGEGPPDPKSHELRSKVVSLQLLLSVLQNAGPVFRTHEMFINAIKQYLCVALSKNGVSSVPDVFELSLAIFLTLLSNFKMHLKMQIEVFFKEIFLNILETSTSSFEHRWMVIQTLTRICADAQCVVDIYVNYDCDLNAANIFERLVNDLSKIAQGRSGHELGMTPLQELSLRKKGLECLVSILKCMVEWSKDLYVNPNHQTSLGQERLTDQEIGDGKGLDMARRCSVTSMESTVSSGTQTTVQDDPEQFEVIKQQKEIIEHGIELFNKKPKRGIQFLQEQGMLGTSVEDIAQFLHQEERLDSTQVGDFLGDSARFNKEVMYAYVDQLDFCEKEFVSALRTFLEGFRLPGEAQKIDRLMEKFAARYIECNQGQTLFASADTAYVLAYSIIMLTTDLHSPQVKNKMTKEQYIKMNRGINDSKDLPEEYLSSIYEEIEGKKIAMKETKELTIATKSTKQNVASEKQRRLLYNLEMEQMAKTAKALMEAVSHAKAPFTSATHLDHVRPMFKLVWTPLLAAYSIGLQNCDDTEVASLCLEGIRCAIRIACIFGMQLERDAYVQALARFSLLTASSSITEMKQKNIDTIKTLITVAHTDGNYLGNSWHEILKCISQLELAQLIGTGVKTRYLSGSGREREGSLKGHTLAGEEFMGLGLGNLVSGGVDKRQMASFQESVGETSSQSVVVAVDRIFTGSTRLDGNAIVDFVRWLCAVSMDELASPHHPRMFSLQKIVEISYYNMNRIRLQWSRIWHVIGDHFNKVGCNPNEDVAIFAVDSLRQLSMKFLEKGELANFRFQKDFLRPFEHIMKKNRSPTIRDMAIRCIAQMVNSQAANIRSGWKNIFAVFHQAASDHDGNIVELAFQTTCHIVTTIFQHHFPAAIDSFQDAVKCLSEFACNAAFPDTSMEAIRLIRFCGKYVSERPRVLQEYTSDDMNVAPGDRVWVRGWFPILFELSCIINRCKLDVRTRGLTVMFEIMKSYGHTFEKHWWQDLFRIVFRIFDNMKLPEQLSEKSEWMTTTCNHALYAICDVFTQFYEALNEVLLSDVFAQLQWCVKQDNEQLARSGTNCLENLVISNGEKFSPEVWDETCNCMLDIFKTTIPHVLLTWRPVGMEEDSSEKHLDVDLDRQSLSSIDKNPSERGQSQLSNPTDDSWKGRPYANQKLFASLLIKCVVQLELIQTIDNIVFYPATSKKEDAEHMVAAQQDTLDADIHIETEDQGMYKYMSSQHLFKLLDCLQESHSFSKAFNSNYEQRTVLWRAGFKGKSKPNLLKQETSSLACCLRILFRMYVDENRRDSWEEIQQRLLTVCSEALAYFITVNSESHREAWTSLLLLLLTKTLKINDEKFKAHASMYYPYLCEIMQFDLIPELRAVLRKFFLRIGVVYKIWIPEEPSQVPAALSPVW
UniProt Q92572: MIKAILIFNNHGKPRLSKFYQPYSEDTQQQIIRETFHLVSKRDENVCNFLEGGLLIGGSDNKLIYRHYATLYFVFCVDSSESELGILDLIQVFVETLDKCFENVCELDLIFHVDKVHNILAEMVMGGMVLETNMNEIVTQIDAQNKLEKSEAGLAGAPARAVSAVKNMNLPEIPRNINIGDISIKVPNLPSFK
UniProt O43747: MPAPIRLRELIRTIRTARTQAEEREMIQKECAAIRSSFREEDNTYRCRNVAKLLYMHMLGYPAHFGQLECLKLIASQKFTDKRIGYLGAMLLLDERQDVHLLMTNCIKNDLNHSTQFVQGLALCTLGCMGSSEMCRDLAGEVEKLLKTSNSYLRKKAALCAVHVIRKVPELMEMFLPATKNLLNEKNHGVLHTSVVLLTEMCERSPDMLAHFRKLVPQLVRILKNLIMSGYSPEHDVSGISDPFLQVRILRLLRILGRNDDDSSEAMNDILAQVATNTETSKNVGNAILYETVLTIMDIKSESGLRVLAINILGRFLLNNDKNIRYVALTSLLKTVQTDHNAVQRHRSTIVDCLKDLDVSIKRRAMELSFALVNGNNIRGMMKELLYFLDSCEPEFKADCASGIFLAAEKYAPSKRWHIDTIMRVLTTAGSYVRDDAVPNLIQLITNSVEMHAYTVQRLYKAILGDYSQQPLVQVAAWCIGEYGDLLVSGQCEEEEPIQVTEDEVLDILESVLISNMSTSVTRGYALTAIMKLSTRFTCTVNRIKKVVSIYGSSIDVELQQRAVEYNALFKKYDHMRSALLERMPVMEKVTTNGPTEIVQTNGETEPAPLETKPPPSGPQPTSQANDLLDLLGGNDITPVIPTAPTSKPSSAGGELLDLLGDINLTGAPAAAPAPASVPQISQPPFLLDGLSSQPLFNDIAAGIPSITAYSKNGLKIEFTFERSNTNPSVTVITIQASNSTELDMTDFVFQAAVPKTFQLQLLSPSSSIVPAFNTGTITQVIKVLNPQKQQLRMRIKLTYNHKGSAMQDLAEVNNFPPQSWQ
UniProt P61204: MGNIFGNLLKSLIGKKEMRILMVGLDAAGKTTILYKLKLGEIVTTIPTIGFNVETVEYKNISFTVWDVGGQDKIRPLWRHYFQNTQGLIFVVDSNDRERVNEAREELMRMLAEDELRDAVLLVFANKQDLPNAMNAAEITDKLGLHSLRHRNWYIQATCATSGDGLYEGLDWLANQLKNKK
UniProt Q92619: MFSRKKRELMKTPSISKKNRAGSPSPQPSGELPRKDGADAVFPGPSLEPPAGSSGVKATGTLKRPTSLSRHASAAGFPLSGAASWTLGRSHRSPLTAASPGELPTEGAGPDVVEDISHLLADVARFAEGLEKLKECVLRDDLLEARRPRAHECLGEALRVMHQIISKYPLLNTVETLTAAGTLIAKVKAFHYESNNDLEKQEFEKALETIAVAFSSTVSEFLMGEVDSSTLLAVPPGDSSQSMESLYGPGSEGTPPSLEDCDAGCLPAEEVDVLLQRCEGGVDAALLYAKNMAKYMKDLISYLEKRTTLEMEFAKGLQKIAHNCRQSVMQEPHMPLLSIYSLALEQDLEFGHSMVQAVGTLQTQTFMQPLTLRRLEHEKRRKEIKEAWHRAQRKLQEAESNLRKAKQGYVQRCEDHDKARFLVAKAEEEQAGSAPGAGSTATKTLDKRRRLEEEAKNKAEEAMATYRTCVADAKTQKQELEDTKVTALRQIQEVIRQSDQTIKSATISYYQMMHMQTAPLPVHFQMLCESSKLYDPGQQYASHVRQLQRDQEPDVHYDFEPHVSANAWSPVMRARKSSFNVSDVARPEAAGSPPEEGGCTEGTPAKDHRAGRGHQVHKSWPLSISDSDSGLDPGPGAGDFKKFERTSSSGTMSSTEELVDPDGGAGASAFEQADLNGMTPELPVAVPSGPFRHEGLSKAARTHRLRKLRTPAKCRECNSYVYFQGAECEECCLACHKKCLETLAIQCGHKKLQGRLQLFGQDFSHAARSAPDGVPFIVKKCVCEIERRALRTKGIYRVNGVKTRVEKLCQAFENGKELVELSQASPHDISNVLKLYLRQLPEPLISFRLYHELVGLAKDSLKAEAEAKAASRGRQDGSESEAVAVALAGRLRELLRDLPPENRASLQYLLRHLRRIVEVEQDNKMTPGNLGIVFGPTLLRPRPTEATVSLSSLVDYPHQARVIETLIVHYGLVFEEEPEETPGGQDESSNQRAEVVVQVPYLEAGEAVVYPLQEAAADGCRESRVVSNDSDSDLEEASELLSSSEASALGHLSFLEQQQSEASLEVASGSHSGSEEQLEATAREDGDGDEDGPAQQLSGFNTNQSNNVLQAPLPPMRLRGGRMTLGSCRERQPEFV
UniProt Q63HQ0: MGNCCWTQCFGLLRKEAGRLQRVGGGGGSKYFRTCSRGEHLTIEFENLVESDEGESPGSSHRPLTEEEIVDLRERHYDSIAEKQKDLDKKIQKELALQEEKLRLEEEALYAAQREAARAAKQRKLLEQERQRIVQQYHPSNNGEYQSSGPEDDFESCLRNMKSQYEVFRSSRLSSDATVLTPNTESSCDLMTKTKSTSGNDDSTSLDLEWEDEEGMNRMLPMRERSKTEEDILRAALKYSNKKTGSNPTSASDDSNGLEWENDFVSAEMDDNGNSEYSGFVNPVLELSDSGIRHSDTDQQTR
UniProt P02654: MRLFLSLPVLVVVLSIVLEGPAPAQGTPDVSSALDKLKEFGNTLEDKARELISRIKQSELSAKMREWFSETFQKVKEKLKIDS

[2] = compound: CC1=C(C=C(C=C1)NC(=O)C2=CC(=CC=C2)N(C)C)NC(=O)C3=CC=C(C=C3)O
Procedure, shortened: as §1

[3] = compound: CC1=CC=C(C=C1)SC2=C3C=C(SC3=CN=C2)C(=O)N
Procedure, shortened: as §1

[4] = compound: CC1=NC(=CC=C1)C2=C(N=C(N2)C(C)(C)C)C3=CC4=NC=CN=C4C=C3
Procedure, shortened: as §1

Nexturastat A = compound: CCCCN(Cc1ccc(C(=O)NO)cc1)C(=O)Nc1ccccc1 [Nexturastat A]
Procedure, shortened: as §1

vemurafenib = compound: CCCS(=O)(=O)Nc1ccc(F)c(C(=O)c2c[nH]c3ncc(-c4ccc(Cl)cc4)cc23)c1F [vemurafenib]
Procedure, shortened: as §1

[5] = compound: CCCS(=O)(=O)Nc1ccc(F)c(C(=O)c2c[nH]c3ncc(Cl)cc23)c1F
Procedure, shortened: as §1

[6] = compound: CCCc1cc(C)[nH]c(=O)c1CNC(=O)c1cc(-c2ccnc(N3CCN(C)CC3)c2)cc2c1cnn2C(C)C
Procedure, shortened: as §1

givinostat = compound: CCN(CC)Cc1ccc2cc(COC(=O)Nc3ccc(C(=O)NO)cc3)ccc2c1 [givinostat]
Procedure, shortened: as §1

barasertib = compound: CCN(CCCOc1ccc2c(Nc3cc(CC(=O)Nc4cccc(F)c4)[nH]n3)ncnc2c1)CCOP(=O)(O)O [barasertib]
Procedure, shortened: as §1

[7] = compound: CC[C@@H]1C(=O)N(C)c2cnc(Nc3ccc(C(=O)NC4CCN(C)CC4)cc3OC)nc2N1C1CCCC1
Procedure, shortened: as §1

volasertib = compound: CC[C@@H]1C(=O)N(C)c2cnc(Nc3ccc(C(=O)N[C@H]4CC[C@H](N5CCN(CC6CC6)CC5)CC4)cc3OC)nc2N1C(C)C [volasertib]
Procedure, shortened: as §1

[8] = compound: CC[C@H](C)N1C=C(C2=C(C=C(C=C21)C3=CN=C(C=C3)N4CCNCC4)C(=O)NCC5=C(C=C(NC5=O)C)C)C
Procedure, shortened: as §1

epoxomicin = compound: CC[C@H](C)[C@@H](C(=O)N[C@@H]([C@@H](C)O)C(=O)N[C@@H](CC(C)C)C(=O)[C@]1(CO1)C)NC(=O)[C@H]([C@@H](C)CC)N(C)C(=O)C [epoxomicin]
Procedure, shortened: as §1

[9] = compound: CCn1c(C(=O)N(C2CC2)C2CC2)cc2c3c(ncn3C)c(Nc3cc(C)n(C)n3)nc21
Procedure, shortened: as §1

[10] = compound: CCn1cc(-c2ccnc3[nH]c(-c4cccc(CN(C)C)c4)cc23)c(-c2ccc(NC(=O)N(C)C)cc2)n1
Procedure, shortened: as §1

[11] = compound: CN(C)CC(=O)Nc1ccc2[nH]c(=O)c3ccccc3c2c1
Procedure, shortened: as §1

rosiglitazone = compound: CN(CCOC1=CC=C(C=C1)C[C@H]2C(=O)NC(=O)S2)C3=CC=CC=N3 (racemic) [rosiglitazone]
Procedure, shortened: as §1

[12] = compound: CN1C2=C(C3=C1C(=O)N(N=C3)CC4=CC(=CC=C4)N)SC(=C2)S(=O)C
Procedure, shortened: as §1

[13] = compound: CN1CCC(CNc2ccc3ncc(-c4cccc(OC(F)(F)F)c4)n3n2)CC1
Procedure, shortened: as §1

Measured: log2 fold change

APOE (UniProt P02649)
inactive: [1] -0.036 | [2] -0.022 | [3] 0.075 | [4] 0.018 | Nexturastat A -0.027 | vemurafenib 0.142 | [5] -0.02 | [6] -0.019 | givinostat -0.058 | barasertib 0.053 | [7] 0.079 | volasertib 0.088 | [8] -0.067 | epoxomicin -0.133 | [9] 0.219 | [10] 0.03 | [11] -0.041 | rosiglitazone 0.004 | [12] 0.031 | [13] 0.056

ANP32A (UniProt P39687)
inactive: [1] 0.076 | [2] 0.005 | [3] 0.002 | [4] 0.093 | Nexturastat A -0.155 | vemurafenib 0.048 | [5] 0.012 | [6] -0.01 | givinostat 0.002 | barasertib 0.015 | [7] -0.067 | volasertib -0.083 | [8] -0.007 | epoxomicin 0.04 | [9] 0.003 | [10] 0.01 | [11] 0.033 | rosiglitazone 0.046 | [12] -0.091 | [13] -0.016

ANKHD1 isoform 6 (UniProt Q8IWZ3)
inactive: [1] 0.044 | [2] 0.041 | [3] 0.007 | [4] -0.079 | Nexturastat A 0.249 | vemurafenib 0.002 | [5] 0.083 | [6] 0.062 | givinostat 0.071 | barasertib 0.02 | [7] 0.086 | volasertib -0.513 | [8] 0.043 | epoxomicin -0.082 | [9] -0.073 | [10] 0.066 | [11] 0.018 | rosiglitazone 0.033 | [12] 0.205 | [13] -0.16

API5 (UniProt Q9BZZ5)
inactive: [1] 0.001 | [2] 0.023 | [3] 0.019 | [4] 0.028 | Nexturastat A -0.045 | vemurafenib 0.005 | [5] 0.026 | [6] -0.042 | givinostat -0.019 | barasertib 0.01 | [7] -0.02 | volasertib -0.074 | [8] -0.009 | epoxomicin 0.036 | [9] -0.037 | [10] -0.048 | [11] -0.011 | rosiglitazone 0.022 | [12] -0.067 | [13] 0.009

ARID1A (UniProt O14497)
inactive: [1] 0.292 | [2] -0.23 | [3] 0.188 | [4] 0.258 | Nexturastat A -0.127 | vemurafenib 0.128 | [5] -0.142 | [6] -0.033 | givinostat 0.136 | barasertib 0.099 | [7] 0.064 | volasertib -0.123 | [8] -0.12 | epoxomicin -0.088 | [9] -0.082 | [10] -0.024 | [11] 0.104 | rosiglitazone -0.03 | [12] 0.278 | [13] -0.05

ANAPC5 (UniProt Q9UJX4)
inactive: [1] -0.027 | [2] 0.006 | [3] -0.005 | [4] -0.025 | Nexturastat A 0.085 | vemurafenib -0.007 | [5] 0.002 | [6] 0.019 | givinostat 0.011 | barasertib 0.002 | [7] 0.021 | volasertib -0.149 | [8] 0.042 | epoxomicin 0.03 | [9] 0.003 | [10] 0.017 | [11] 0.005 | rosiglitazone -0.008 | [12] 0.021 | [13] 0.011

ARIH1 (UniProt Q9Y4X5)
inactive: [1] -0.007 | [2] 0.034 | [3] 0.05 | [4] 0.006 | Nexturastat A -0.007 | vemurafenib -0.033 | [5] 0.01 | [6] -0.042 | givinostat -0.1 | barasertib 0.002 | [7] -0.021 | volasertib -0.036 | [8] -0.018 | epoxomicin 0.032 | [9] 0.004 | [10] -0.025 | [11] -0.023 | rosiglitazone 0.003 | [12] -0.059 | [13] -0.03

ARG2 (UniProt P78540)
inactive: [1] -0.06 | [2] 0.004 | [3] 0.05 | [4] 0.008 | Nexturastat A -0.009 | vemurafenib 0.009 | [5] -0.008 | [6] -0.026 | givinostat 0.002 | barasertib 0.009 | [7] 0.017 | volasertib 0.019 | [8] -0.043 | epoxomicin -0.038 | [9] 0.038 | [10] -0.013 | [11] -0.018 | rosiglitazone 0.026 | [12] 0.03 | [13] 0.057

ARHGDIB (UniProt P52566)
inactive: [1] 0.006 | [2] -0.028 | [3] -0.032 | [4] 0.024 | Nexturastat A -0.035 | vemurafenib -0.007 | [5] -0.045 | [6] -0.213 | givinostat -0.021 | barasertib 0.045 | [7] 0.01 | volasertib 0.018 | [8] 0.028 | epoxomicin 0.044 | [9] -0.024 | [10] -0.02 | [11] -0.009 | rosiglitazone 0.027 | [12] -0.027 | [13] -0.001

ARFGEF2 (UniProt Q9Y6D5)
inactive: [1] -0.117 | [2] 0.012 | [3] -0.032 | [4] -0.023 | Nexturastat A -0.031 | vemurafenib 0.043 | [5] 0.075 | [6] 0.117 | givinostat 0.038 | barasertib 0.014 | [7] -0.065 | volasertib -0.197 | [8] 0.023 | epoxomicin -0.008 | [9] -0.04 | [10] 0.011 | [11] 0.015 | rosiglitazone 0.043 | [12] -0.03 | [13] -0.124

AP3S1 (UniProt Q92572)
inactive: [1] 0.02 | [2] 0.013 | [3] -0.02 | [4] 0.009 | Nexturastat A 0.094 | vemurafenib 0.022 | [5] 0.041 | [6] -0.022 | givinostat 0.032 | barasertib 0.044 | [7] 0.017 | volasertib -0.187 | [8] 0.055 | epoxomicin 0.022 | [9] -0.057 | [10] 0.01 | [11] 0.002 | rosiglitazone 0.037 | [12] 0.006 | [13] -0.05

Quoted at random: two records from the list.
ARIH1 (UniProt Q9Y4X5)
inactive: [1] -0.007 | [2] 0.034 | [3] 0.05 | [4] 0.006 | Nexturastat A -0.007 | vemurafenib -0.033 | [5] 0.01 | [6] -0.042 | givinostat -0.1 | barasertib 0.002 | [7] -0.021 | volasertib -0.036 | [8] -0.018 | epoxomicin 0.032 | [9] 0.004 | [10] -0.025 | [11] -0.023 | rosiglitazone 0.003 | [12] -0.059 | [13] -0.03

ARHGDIB (UniProt P52566)
inactive: [1] 0.006 | [2] -0.028 | [3] -0.032 | [4] 0.024 | Nexturastat A -0.035 | vemurafenib -0.007 | [5] -0.045 | [6] -0.213 | givinostat -0.021 | barasertib 0.045 | [7] 0.01 | volasertib 0.018 | [8] 0.028 | epoxomicin 0.044 | [9] -0.024 | [10] -0.02 | [11] -0.009 | rosiglitazone 0.027 | [12] -0.027 | [13] -0.001

Additional entries follow:

AP1G1 isoform 2 (UniProt O43747)
inactive: [1] 0.036 | [2] -0.035 | [3] 0.039 | [4] 0.016 | Nexturastat A 0.032 | vemurafenib 0.093 | [5] 0.087 | [6] -0.004 | givinostat -0.005 | barasertib 0.055 | [7] -0.019 | volasertib -0.235 | [8] 0.029 | epoxomicin -0.006 | [9] -0.068 | [10] -0.049 | [11] 0.042 | rosiglitazone 0.051 | [12] -0.051 | [13] -0.024

ARF3 (UniProt P61204)
inactive: [1] 0.024 | [2] 0.026 | [3] 0 | [4] 0.029 | Nexturastat A -0.091 | vemurafenib 0.02 | [5] 0.005 | [6] -0.012 | givinostat 0.005 | barasertib -0.014 | [7] 0.079 | volasertib 0.032 | [8] -0.039 | epoxomicin -0.039 | [9] 0.002 | [10] -0.023 | [11] -0.009 | rosiglitazone 0.004 | [12] -0.061 | [13] 0.03

ARHGAP45 isoform 2 (UniProt Q92619)
inactive: [1] 0.069 | [2] -0.073 | [3] 0.01 | [4] -0.031 | Nexturastat A 0.042 | vemurafenib -0.045 | [5] 0.012 | [6] -0.178 | givinostat 0.007 | barasertib 0.051 | [7] 0.003 | volasertib -0.085 | [8] -0.155 | epoxomicin -0.056 | [9] 0.028 | [10] 0.004 | [11] -0.048 | rosiglitazone 0.114 | [12] 0.07 | [13] 0.074

AP1AR (UniProt Q63HQ0)
inactive: [1] -0.117 | [2] 0.023 | [3] -0.071 | [4] -0.05 | Nexturastat A 0.048 | vemurafenib 0.025 | [5] -0.025 | [6] -0.075 | givinostat -0.112 | barasertib 0.041 | [7] 0.011 | volasertib 0.027 | [8] 0.021 | epoxomicin 0.029 | [9] 0.059 | [10] -0.086 | [11] -0.023 | rosiglitazone -0.023 | [12] 0.078 | [13] 0.013

APOC1 (UniProt P02654)
inactive: [1] 0.037 | [2] -0.038 | [3] -0.006 | [4] -0.087 | Nexturastat A 0.054 | vemurafenib -0.031 | [5] -0.053 | [6] 0.019 | givinostat -0.086 | barasertib 0.03 | [7] 0.202 | volasertib 0.128 | [8] -0.038 | epoxomicin 0.243 | [9] 0.032 | [10] 0.089 | [11] 0.046 | rosiglitazone 0.006 | [12] -0.037 | [13] 0.196
